Our source for the binding values is PMC11171048.

These are yes or no findings as the source states them, for the method shown. In cells and extracts the contact can be indirect. For some assays here: A result given as binding can be weak or reduced; the word gives no strength. Tags and fused reporters may be left off the sequences shown.

Test [1] concerns the target FLAG-tagged bovine DDX3X (bovine). Description: co-IP; HEK293T cells co-transfected; lysates in IP lysis buffer plus PMSF, 4 ug anti-Flag or anti-HA antibody overnight at 4 °C, protein A + G agarose beads 4 h, five washes; Western blot. On the technique in general: Immunoblotting shows a protein as a band on a membrane.
The target of test [2] is FLAG-tagged bovine SP110c isoform (bovine). Described as above.

B1: HA-tagged bovine ASC (protein, UniProt Q8HXK9 1-195)
chain: MGCTRDAILDALENLTADELKKFKMKLLSVPLREGYGRIPRGTLLPLDAVDLTDKLVSYYLEAYGAELTALVLRDMGMQEVAEQLQETMSKGPRNVLAEVRDPLQKTAKPGLHFVDQHRAALIARVTVVDGVLDALYGKVLTEEQYQAVRAERTSSDKMRKLFSFSPAWNMTCKDLLLQALRDTQPYLVDDLEQS
Take B1: the binding result in test [1] was “no binding”; in test [2], “binds weakly”.
